Test results reported in paper PMC5932034.
These are yes or no findings as the source states them, for the method shown.

The chains behind the UniProt entries cited, without tags or fusion partners. Residues count along the entry.
UniProt P40729, residues 362-692: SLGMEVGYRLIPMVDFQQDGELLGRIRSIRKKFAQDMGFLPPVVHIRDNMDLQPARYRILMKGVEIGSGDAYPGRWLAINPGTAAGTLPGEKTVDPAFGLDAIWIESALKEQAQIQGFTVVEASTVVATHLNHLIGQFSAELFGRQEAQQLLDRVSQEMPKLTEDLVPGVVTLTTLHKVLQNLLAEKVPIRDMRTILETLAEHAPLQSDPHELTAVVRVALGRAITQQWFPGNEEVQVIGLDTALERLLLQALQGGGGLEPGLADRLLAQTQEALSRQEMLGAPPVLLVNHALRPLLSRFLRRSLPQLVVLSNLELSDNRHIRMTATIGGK

Target: cytoplasmic domain of Salmonella enterica serovar Typhimurium FlhA (FlhA^C) (Salmonella enterica serovar Typhimurium ST313) (UniProt P40729)
Test: NMR titration; unlabelled partner added to isotopically labelled FlhA^C (and unlabelled FlhA^C to labelled chaperone–substrate complex); 25 °C; 50 mM NaPi pH 6.8, 300 mM NaCl, 0.05% NaN3; typically 0.3 mM labelled protein; both purified

B1: FliD (protein, UniProt P16328 1-467)
chain: MASISSLGVGSNLPLDQLLTDLTKNEKGRLTPITKQQSANSAKLTAYGTLKSALEKFQTANTALNKADLFKSTVASSTTEDLKVSTTAGAAAGTYKINVTQLAAAQSLATKTTFATTKEQLGDTSVTSRTIKIEQPGRKEPLEIKLDKGDTSMEAIRDAINDADSGIAASIVKVKENEFQLVLTANSGTDNTMKITVEGDTKLNDLLAYDSTTNTGNMQELVKAENAKLNVNGIDIERQSNTVTDAPQGITLTLTKKVTDATVTVTKDDTKAKEAIKSWVDAYNSLVDTFSSLTKYTAVEPGEEASDKNGALLGDSVVRTIQTGIRAQFANSGSNSAFKTMAEIGITQDGTSGKLKIDDDKLTKVLKDNTAAARELLVGDGKETGITTKIATEVKSYLADDGIIDNAQDNVNATLKSLTKQYLSVSNSIDETVARYKAQFTQLDTMMSKLNNTSSYLTQQFTAMNKS
binding: no binding
